Literature values, collected in patent US8697839B2, “GQ protein competitive inhibitory polypeptides, preparation methods and uses thereof” (Third Military Medical University, priority 2008, dated 2014).

Details: clinical dosage converted into the dosage in the mouse; cited from earlier work

COC(=O)C1=C(C)NC(C)=C(C(=O)OC)C1c1ccccc1[N+](=O)[O-] [nifedipine]
ratio of mouse LD50/routine dosage: 157
